Laboratory results: PubChem BioAssay AID588519 (ICCB-Longwood Screening Facility, Harvard Medical School, 2011)
The other results are listed elsewhere or left out.

Each molecule was assayed against Genome polyprotein (Poliovirus type 1 (strain Mahoney)) (UniProt P03300) (assay: poliovirus RdRp elongation inhibitors, primary screen, biochemical, fluorescence polarization, total intensity (AID 588519; further: compound at 16.7 µg/mL)). Details: poliovirus polymerase elongation, measured here: FP z-score, stronger effect = lower value.

SMILES | z-score
CN(CCCl)CCCl | 0.6
